Measurements published in PubChem BioAssay AID1347423 (Functional Genomics Laboratory (NCATS/FGL), 2020).
Out of some 52,000 sequences screened, about 210 (0.4%) were called active.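 Rule for the calls: active = gene whose silencing raises cell survival under the drug, median off-target-corrected z-score across its silencing RNAs 2 or more; inactive = the rest.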 This is one part of the list.

Assay: Resistance to Poly (ADP-Ribose) Polymerase inhibitor: Gene Identification via Genome-wide siRNA Screen
Conditions: mouse BRCA2 R2336H ES cells, olaparib, CellTiter-Glo viability; stronger effect = higher value
Outline: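 Mouse BRCA2 R2336H ES cells were reverse-transfected with siRNA (20 nM final), treated at 48 h with 500 nM olaparib, and read by CellTiter-Glo after 72 h. Scores: MAD-based z per siRNA, median per gene, seed off-target correction.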
For “AUACGAUGUUGUGGUCAGCTT against 1110001P11Rik”, the z-score was inactive: 0.945. With GGGUCAAAAUGUGAGCUAUTT against BC003331 the z-score was inactive: 0.675. With GGAAGCAGGGCAGCUUAUUTT against Hbq1 the z-score was inactive: 0.0397. For “GGUCUGGUCAUCUCAGUUUTT against 8430420C20Rik”, the z-score was inactive: -1.43. In the case of GCCCUUAUGGACGAAAUUUTT against Ang2, the z-score is reported as inactive: 1.12. For “GGUGGUCACUAGCUAACCCTT against 4632433K11Rik”, the z-score was inactive: 0.546. With GGAAAAGGUGUUCUGUUUUTT against Ankrd5 the z-score was inactive: -0.0357. For GGAAAAAAGACCACCAAGATT against Mtif2, the z-score was inactive: -0.589. For GUUCGAAAAGGGAAUGAUATT against LOC212285, the z-score was inactive: 1.34. In the case of “CCAGUAUCUAAUUGGAAUATT against 1700019B16Rik”, the z-score is reported as inactive: -0.294. For GCCGAGCAGAUGUACAGAATT against Zfp39, the z-score was inactive: 1.8. With GGAUUCUCAGAAUGCUGGUTT against Polr3f the z-score was inactive: 0.367. With “CCAGAGAGCCUUUUGUUUUTT against 9130413I22Rik” the z-score was inactive: -0.954. In the case of “CGGAAGAAGCCAGUUAAGATT against 2310016F22Rik”, the z-score is reported as inactive: 0.503. In the case of GCCCUGUCGUUUAUUGUGGTT against Cacng4, the z-score is reported as inactive: 2.37. For CCCAAACAUAGCUGAAUAATT against Muc1, the z-score was inactive: -0.696. For GGUCAAUAUCCUCGGACAUTT against Hsd17b13, the z-score was inactive: 0.672. With GCGAAUUUGCCUCUUACUATT against Rad9 the z-score was inactive: -1.87. With GCGAGUCGUGAUUGACAACTT against Pnkp the z-score was inactive: -0.408. With “GGCAAUCAGGUUGACAGAUTT against C130079G13Rik” the z-score was inactive: -0.383. In the case of CCAGGUAUUCUUAAUAGACTT against Zfp207, the z-score is reported as inactive: -2.09. With GGUCACAGUUGGCAAAGAUTT against Myh11 the z-score was inactive: 1.11. In the case of GGAAUGCAUGAUGAUGUCATT against Prlpf, the z-score is reported as inactive: -3.09. For GCUAAAGUGACCUUAAAACTT against Phactr4, the z-score was inactive: 1.19. For GGCCUAAGAUCAACUGACATT against Dtprp, the z-score was inactive: -1.14. For GGCUAUGGAUGUCUCCAAUTT against Gstm4, the z-score was inactive: -0.0857. With “AGACAGAUUCCAGUCCUGGTT against 4930451I11Rik” the z-score was inactive: 0.584. In the case of GCCCAGAAUCAACUCCUACTT against Wwp2, the z-score is reported as inactive: -0.105. With GCCUAUUAUAUUUAGACAGTT against Col4a6 the z-score was inactive: 0.84. With GGGACCAAGCAGGUAAAAATT against Kif3a the z-score was active: 4.17. In the case of GGAAUUAAAGAGGAAACAATT against Zfp354b, the z-score is reported as inactive: 0.0735. In the case of “GCAUGGAUUGCUGUUUCUATT against 4930432H15Rik”, the z-score is reported as inactive: 0.662. In the case of GGAGGAAUAUGACACAGUGTT against Wars2, the z-score is reported as inactive: -0.557. For GCUAGAGGAUGGCUGAGCUTT against Poll, the z-score was inactive: -0.666. With GGAUCUAGAUGAGAAUGAATT against Fip1l1 the z-score was inactive: -2.79. In the case of CCGUCAUGCUGAUUGCCUUTT against Gpr119, the z-score is reported as inactive: -2.32. For GGACAUUAUCCUCAGGGUGTT against Ccm2, the z-score was inactive: -1.15. For GGAGAGUUAUUUGACCACCTT against Emd, the z-score was inactive: -0.156. In the case of CCUAAAGUGAUUGCUGAUUTT against Olfr1202, the z-score is reported as inactive: 1.03. In the case of “GGGUUCAGACUGCUUCUUATT against 2900005J15Rik”, the z-score is reported as inactive: -0.048. In the case of CCCGACUUCAGGAUGACAATT against AI256711, the z-score is reported as inactive: -0.496. For GGAUGAAAAACUUUGAAACTT against Hao1, the z-score was inactive: -0.0113. With “CGGAGUCACGCACAACUUCTT against 6330406P08Rik” the z-score was inactive: 1.04. For GCACCAUAUCUGAGAACUUTT against D13Wsu14e, the z-score was inactive: -1.05. In the case of CCCAACUAGUGUAGCUAUCTT against Usf1, the z-score is reported as inactive: -1.72. With GCUCCUUAGAGAGAGUAUUTT against Sod3 the z-score was inactive: -1.58. For “GGUUGGUAGGCUUUGGUGUTT against 5730593N15Rik”, the z-score was inactive: 1.22. For GGUCAAGUUUGACCUCAAGTT against Mybpc3, the z-score was inactive: -0.0605. In the case of GGGACAACAAUGGUUUAGGTT against Tsga13, the z-score is reported as inactive: -0.167. In the case of GCAGACAAAGAUCGCCAAATT against H2-Q5, the z-score is reported as inactive: 0.242. For GGUCCUGUUAAACUGAAAGTT against Fkbp1a, the z-score was inactive: 0.0161. With CCGGACUCAGUUAUGGAAGTT against Gpr135 the z-score was inactive: -0.78. With GCUACAUAAUUCCGAAGUUTT against Fmr1 the z-score was inactive: 1.42. For GGAGUACCUGUGGUGCAUUTT against Ahcy, the z-score was inactive: -0.164. For CCAACAAUAAACGAGGUCCTT against Mnt, the z-score was inactive: -0.6. In the case of GAAGUACAAGGUAGAGUACTT against Mgst3, the z-score is reported as inactive: -1.47. With GCCUGUAUACAUAAGUAAATT against Syngr4 the z-score was inactive: -0.759. In the case of “GGGUUGUCCGGGAGAAAGATT against C530024P05Rik”, the z-score is reported as inactive: -1.93. With GGCCUUUUCAUUGUUUGACTT against Myl4 the z-score was inactive: 0.267. In the case of GGACUCCUUUAAGCCACUUTT against Prkag1, the z-score is reported as inactive: 0.583. With GGCACAGACCUCACAGUUATT against Olfr65 the z-score was inactive: -1.39. With GCUGGUGAUGACGUGUAUCTT against Viaat the z-score was inactive: 0.956. With GGGCAGACAGUUUACAGAATT against Aco1 the z-score was inactive: -0.463. For GGCCGGCUAAAGGCUUUUUTT against Olfr1019, the z-score was inactive: -0.363. For GGUUUAAUUCUUGUCUUGUTT against Pvt1, the z-score was inactive: -1.38. For “GCUUCCCGCUAUGAGUUCATT against D430041B17”, the z-score was inactive: 0.805.
